± gives the standard deviation of the averaged measurements. Most entries show no effect beyond the scatter of the controls.
Columns and labels:
Test in all cases: level (log10 ratio to DMSO vehicle control); higher = higher biomarker level / cell amount than vehicle control
[1] = compound: OCCCC(F)(F)C(F)(F)C(F)(F)C(F)(F)C(F)(F)C(F)(F)C(F)(F)C(F)(F)F [3-(Perfluorooctyl)propanol] (in DMSO); conditions: 2200 nM
Experimental: (§1)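 BioMAP Diversity Plus panel of 12 human primary cell co-culture systems (3C, 4H, LPS, SAg, BT, BF4T, BE3C, CASM3C, HDF3CGF, KF3CT, MyoF, Mphg). Compounds were added 1 h before stimulation and left for 24 h (MyoF 48 h; BT 72 h for soluble read-outs or 6 d for IgG). Biomarkers were read by ELISA, cytotoxicity by SRB, PBMC viability and proliferation by Alamar Blue. Each well value was divided by the mean of 8 DMSO control wells on the same plate and log10 transformed; duplicate blinded samples were tested at 4 concentrations.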

[2] = compound: CNS(=O)(=O)C(F)(F)C(F)(F)C(F)(F)C(F)(F)C(F)(F)C(F)(F)C(F)(F)C(F)(F)F [N-Methylperfluorooctanesulfonamide] (in DMSO); conditions: 2200 nM
Experimental: as §1

[3] = compound: FC(F)(F)COC(OCC(F)(F)F)OCC(F)(F)F [tris(Trifluoroethoxy)methane] (in DMSO); conditions: 2200 nM
Experimental: as §1

[4] = compound: OCC(F)(F)OC(F)(F)C(F)(F)OC(F)(F)CO [1H,1H,8H,8H-Perfluoro-3,6-dioxaoctane-1,8-diol] (in DMSO); conditions: 2200 nM
Experimental: as §1

[5] = compound: FC(F)(F)C(F)(F)C(F)(F)C(F)(F)CCI [1H,1H,2H,2H-Perfluorohexyl iodide] (in DMSO); conditions: 2200 nM
Experimental: as §1

[6] = compound: O=S(=O)(O)C(F)(F)C(F)(F)C(F)(F)C(F)(F)F [Perfluorobutanesulfonic acid] (in DMSO)
Experimental: as §1

[7] = compound: FC(F)(F)C(F)(F)CNCC(F)(F)C(F)(F)F [Bis(1H,1H-perfluoropropyl)amine] (in DMSO); conditions: 2200 nM
Experimental: as §1

[8] = compound: O=C(O)C(F)(OC(F)(F)C(F)(OC(F)(F)C(F)(OC(F)(F)C(F)(F)C(F)(F)F)C(F)(F)F)C(F)(F)F)C(F)(F)F [Perfluoro-(2,5,8-trimethyl-3,6,9-trioxadodecanoic)acid] (in DMSO); conditions: 370 nM
Experimental: as §1

[9] = compound: OCC(F)(F)C(F)(F)C(F)(F)C(F)(F)C(F)(F)C(F)(F)CO [1H,1H,8H,8H-Perfluorooctane-1,8-diol] (in DMSO); conditions: 2200 nM
Experimental: as §1

Perfluorohexanoic acid = compound: O=C(O)C(F)(F)C(F)(F)C(F)(F)C(F)(F)C(F)(F)F [Perfluorohexanoic acid] (in DMSO)
Experimental: as §1

[10] = compound: OCC(F)(F)C(F)(F)C(F)(F)C(F)F [1H,1H,5H-Perfluoropentanol] (in DMSO); conditions: 2200 nM
Experimental: as §1

[11] = compound: O=C(O)C(F)(F)C(F)(F)C(F)(F)OC(F)(C(F)(F)F)C(F)(F)F [Perfluoro-4-isopropoxybutanoic acid] (in DMSO); conditions: 2200 nM
Experimental: as §1

[12] = compound: C=C(C)C(=O)OCCC(F)(F)C(F)(F)C(F)(F)C(F)(F)C(F)(F)C(F)(F)F [6:2 Fluorotelomer methacrylate] (in DMSO); conditions: 2200 nM
Experimental: as §1

[13] = compound: OCC(F)(F)C(F)(F)C(F)(F)C(F)(F)C(F)(F)C(F)(F)F [6:1 Fluorotelomer alcohol] (in DMSO); conditions: 2200 nM
Experimental: as §1

[14] = compound: O=C(O)C(F)(OC(F)(F)C(F)(F)C(F)(F)F)C(F)(F)F [Ammonium perfluoro-2-methyl-3-oxahexanoate] (in Water)
Experimental: as §1

[15] = compound: O=C(O)CCC(F)(F)C(F)(F)C(F)(F)F [3:3 Fluorotelomer carboxylic acid] (in DMSO); conditions: 2200 nM
Experimental: as §1

Hexafluoroglutaric acid = compound: O=C(O)C(F)(F)C(F)(F)C(F)(F)C(=O)O [Hexafluoroglutaric acid] (in DMSO)
Experimental: as §1

Test System	level (log10) [1]	level (log10) [2]	level (log10) [3]	level (log10) [4]	level (log10) [5]	level (log10) ([6]; 2200 nM)	level (log10) ([6]; 6700 nM)	level (log10) ([6]; 20000 nM)	level (log10) ([6]; 60000 nM)	level (log10) [7]	level (log10) [8]	level (log10) [9]	level (log10) (Perfluorohexanoic acid; 2200 nM)	level (log10) (Perfluorohexanoic acid; 6700 nM)	level (log10) (Perfluorohexanoic acid; 20000 nM)	level (log10) (Perfluorohexanoic acid; 60000 nM)	level (log10) [10]	level (log10) [11]	level (log10) [12]	level (log10) [13]	level (log10) ([14]; 2200 nM)	level (log10) ([14]; 6700 nM)	level (log10) ([14]; 20000 nM)	level (log10) ([14]; 60000 nM)	level (log10) [15]	level (log10) (Hexafluoroglutaric acid; 2200 nM)	level (log10) (Hexafluoroglutaric acid; 6700 nM)	level (log10) (Hexafluoroglutaric acid; 20000 nM)	level (log10) (Hexafluoroglutaric acid; 60000 nM)
BE3C:HLA-DR	0.0005 ± 0.023	0.0005 ± 0.033	0.003 ± 0.04	0 ± 0.0085	0.002 ± 0.038	0.006 ± 0.0085	-0.003	0 ± 0.0028	0.0035 ± 0.018	0.0155 ± 0.035	-0.0115 ± 0.0092	-0.009	0 ± 0.0014	-0.0025 ± 0.0021	-0.011 ± 0.0028	-0.012 ± 0.0099	0.003 ± 0.0085	0.0125 ± 0.036	0.007 ± 0.018	0.004 ± 0.025	0.006 ± 0.0085	-0.022 ± 0.013	-0.0015 ± 0.018	-0.0265 ± 0.0021	-0.011 ± 0.025	0.003 ± 0.016	-0.006	-0.017 ± 0.0014	-0.021 ± 0.028
BE3C:IL-1alpha	0.028 ± 0.04	0.017 ± 0.033	0.043 ± 0.052	0.018 ± 0.04	0.018 ± 0.03	-0.0115 ± 0.0021	-0.0175 ± 0.012	-0.013 ± 0.0085	-0.0075 ± 0.012	0.0255 ± 0.039	-0.0095 ± 0.005	0.0255 ± 0.039	0 ± 0.0085	0.005 ± 0.0071	-0.0115 ± 0.0035	-0.002 ± 0.0042	0.0005 ± 0.028	0.031 ± 0.035	-0.005 ± 0.017	0.0135 ± 0.018	-0.005	-0.0215 ± 0.013	-0.001 ± 0.0028	-0.0085 ± 0.005	0.036 ± 0.064	-0.01 ± 0.017	-0.014 ± 0.027	-0.0295 ± 0.005	-0.0045 ± 0.016
BE3C:Keratin 8/18	-0.0175 ± 0.026	0.009 ± 0.017	-0.01 ± 0.052	0.008 ± 0.0014	-0.0015 ± 0.029	-0.0045 ± 0.0078	0.003 ± 0.0014	-0.0035 ± 0.00071	-0.0165 ± 0.0078	0.016 ± 0.018	-0.006 ± 0.024	-0.025 ± 0.0042	-0.008 ± 0.0071	-0.017 ± 0.0057	-0.0125 ± 0.0035	-0.0175 ± 0.021	-0.004 ± 0.014	0.0015 ± 0.015	-0.026 ± 0.028	0.0035 ± 0.035	-0.011 ± 0.0057	-0.042 ± 0.0042	-0.019 ± 0.024	-0.0165 ± 0.0092	-0.022 ± 0.031	-0.0095 ± 0.0021	-0.006 ± 0.0085	-0.018 ± 0.0014	-0.003 ± 0.0042
BE3C:MMP-1	0.038 ± 0.083	0.088 ± 0.011	0.012 ± 0.079	0.0565 ± 0.0035	0.0235 ± 0.00071	-0.0075 ± 0.0035	0.0055 ± 0.028	-0.011 ± 0.0057	0.019 ± 0.013	0.026 ± 0.081	-0.003 ± 0.0028	0.0295 ± 0.061	-0.009 ± 0.0099	-0.0075 ± 0.0064	0 ± 0.011	0.0275 ± 0.012	0.001 ± 0.0042	0.0165 ± 0.0078	0.019 ± 0.0028	0.0095 ± 0.0092	0.0495 ± 0.005	0.0325 ± 0.032	0.062 ± 0.038	0.136 ± 0.013	0.0035 ± 0.033	-0.0315 ± 0.00071	-0.011 ± 0.0099	-0.023 ± 0.016	0.007 ± 0.058

From the supplement of paper PMC10331698
